Assay results

Source: PubChem BioAssay AID504749 (NCATS, 2011).

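Malaria parasite (P. falciparum) lines kept in red blood cells; parasite DNA is measured by SYBR Green fluorescence after lysis, 72 h after compound addition.
Each compound was titrated across a series from about 0.000037 to 29 µM.
The number is the fitted AC50, the concentration giving a half-maximal change in signal; a lower value means higher potency, whether the curve shows a decrease or an increase.
Calls follow the curve class and fit quality: every row here is inconclusive, covering signal-raising curves and weak, poorly fitted, partial or highest-dose-only inhibition curves.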

Values are in µM.
All entries here are filed as inconclusive.
These entries are mostly ones the record files as inconclusive; other results of the assay are not listed here.
A potency from a partial, single-point or poor curve is only a rough figure.

{"compound": "CCC[C@@H]1O[C@@H]2C[C@@H]3[C@H]4CCC5=CC(=O)C=C[C@@]5(C)[C@H]4[C@H](O)C[C@@]3(C)[C@@]2(C(=O)CO)O1", "condition": "CP185", "potency (µM)": "6.31", "curve": "inhibitor, partial curve"}
{"compound": "C[C@]12CCC(=O)C=C1CC[C@H]1[C@@H]3CC[C@](O)(C(=O)CO)[C@@]3(C)C[C@H](O)[C@@]12F", "condition": "TAB113", "potency (µM)": "2.818", "curve": "inhibitor, single point"}
{"compound": "Cc1ccc(NC(=O)c2ccc(CN3CCN(C)CC3)cc2)cc1Nc1nccc(-c2cccnc2)n1", "condition": "FAB9", "potency (µM)": "15.85", "curve": "inhibitor, single point"}
{"compound": "Cc1ccc(NC(=O)c2ccc(CN3CCN(C)CC3)cc2)cc1Nc1nccc(-c2cccnc2)n1", "condition": "CP211", "potency (µM)": "19.01", "curve": "inhibitor, single point"}
{"compound": "Cc1ccc(NC(=O)c2ccc(CN3CCN(C)CC3)cc2)cc1Nc1nccc(-c2cccnc2)n1", "condition": "SC27B", "potency (µM)": "12.59", "curve": "inhibitor, single point"}
{"compound": "Cc1ccc(NC(=O)c2ccc(CN3CCN(C)CC3)cc2)cc1Nc1nccc(-c2cccnc2)n1", "condition": "CP335", "potency (µM)": "15.1", "curve": "inhibitor, single point"}
{"compound": "Cc1ccc(NC(=O)c2ccc(CN3CCN(C)CC3)cc2)cc1Nc1nccc(-c2cccnc2)n1", "condition": "CP329", "potency (µM)": "19.01", "curve": "inhibitor, single point"}
{"compound": "Cc1ccc(NC(=O)c2ccc(CN3CCN(C)CC3)cc2)cc1Nc1nccc(-c2cccnc2)n1", "condition": "CP194", "potency (µM)": "16.94", "curve": "inhibitor, single point"}
{"compound": "Cc1ccc(NC(=O)c2ccc(CN3CCN(C)CC3)cc2)cc1Nc1nccc(-c2cccnc2)n1", "condition": "CP262", "potency (µM)": "13.46", "curve": "inhibitor, single point"}
{"compound": "Cc1ccc(NC(=O)c2ccc(CN3CCN(C)CC3)cc2)cc1Nc1nccc(-c2cccnc2)n1", "condition": "CP215", "potency (µM)": "19.01", "curve": "inhibitor, single point"}
{"compound": "Cc1ccc(NC(=O)c2ccc(CN3CCN(C)CC3)cc2)cc1Nc1nccc(-c2cccnc2)n1", "condition": "CP252", "potency (µM)": "12.59", "curve": "inhibitor, single point"}
{"compound": "Cc1ccc(NC(=O)c2ccc(CN3CCN(C)CC3)cc2)cc1Nc1nccc(-c2cccnc2)n1", "condition": "CP315", "potency (µM)": "19.01", "curve": "inhibitor, single point"}
{"compound": "Cc1ccc(NC(=O)c2ccc(CN3CCN(C)CC3)cc2)cc1Nc1nccc(-c2cccnc2)n1", "condition": "PC15", "potency (µM)": "10", "curve": "inhibitor, single point"}
{"compound": "Cc1ccc(NC(=O)c2ccc(CN3CCN(C)CC3)cc2)cc1Nc1nccc(-c2cccnc2)n1", "condition": "HB3", "potency (µM)": "10", "curve": "inhibitor, single point"}
{"compound": "Cc1ccc(NC(=O)c2ccc(CN3CCN(C)CC3)cc2)cc1Nc1nccc(-c2cccnc2)n1", "condition": "JCK", "potency (µM)": "17.78", "curve": "inhibitor, single point"}
{"compound": "Cc1ccc(NC(=O)c2ccc(CN3CCN(C)CC3)cc2)cc1Nc1nccc(-c2cccnc2)n1", "condition": "DFO2036", "potency (µM)": "17.78", "curve": "inhibitor, single point"}
{"compound": "Cc1ccc(NC(=O)c2ccc(CN3CCN(C)CC3)cc2)cc1Nc1nccc(-c2cccnc2)n1", "condition": "CP297", "potency (µM)": "15.1", "curve": "inhibitor, single point"}
{"compound": "Cc1ccc(NC(=O)c2ccc(CN3CCN(C)CC3)cc2)cc1Nc1nccc(-c2cccnc2)n1", "condition": "CP265", "potency (µM)": "12.59", "curve": "inhibitor, single point"}
{"compound": "Cc1ccc(NC(=O)c2ccc(CN3CCN(C)CC3)cc2)cc1Nc1nccc(-c2cccnc2)n1", "condition": "CP260", "potency (µM)": "10", "curve": "inhibitor, single point"}
{"compound": "Cc1ccc(NC(=O)c2ccc(CN3CCN(C)CC3)cc2)cc1Nc1nccc(-c2cccnc2)n1", "condition": "CP305", "potency (µM)": "12", "curve": "inhibitor, single point"}
{"compound": "Cc1ccc(NC(=O)c2ccc(CN3CCN(C)CC3)cc2)cc1Nc1nccc(-c2cccnc2)n1", "condition": "CP192", "potency (µM)": "13.46", "curve": "inhibitor, single point"}
{"compound": "Cc1ccc(NC(=O)c2ccc(CN3CCN(C)CC3)cc2)cc1Nc1nccc(-c2cccnc2)n1", "condition": "CP250", "potency (µM)": "10", "curve": "inhibitor, single point"}
{"compound": "Cc1ccc(NC(=O)c2ccc(CN3CCN(C)CC3)cc2)cc1Nc1nccc(-c2cccnc2)n1", "condition": "PC49", "potency (µM)": "14.13", "curve": "inhibitor, single point"}
{"compound": "Cc1ccc(NC(=O)c2ccc(CN3CCN(C)CC3)cc2)cc1Nc1nccc(-c2cccnc2)n1", "condition": "CP203", "potency (µM)": "19.01", "curve": "inhibitor, single point"}
{"compound": "Cc1ccc(NC(=O)c2ccc(CN3CCN(C)CC3)cc2)cc1Nc1nccc(-c2cccnc2)n1", "condition": "CP268", "potency (µM)": "19.01", "curve": "inhibitor, single point"}

Some entries from above, unchanged:

Compound,condition,potency (µM),curve
Cc1ccc(NC(=O)c2ccc(CN3CCN(C)CC3)cc2)cc1Nc1nccc(-c2cccnc2)n1,CP194,16.94,"inhibitor, single point"
Cc1ccc(NC(=O)c2ccc(CN3CCN(C)CC3)cc2)cc1Nc1nccc(-c2cccnc2)n1,CP211,19.01,"inhibitor, single point"
Cc1ccc(NC(=O)c2ccc(CN3CCN(C)CC3)cc2)cc1Nc1nccc(-c2cccnc2)n1,CP192,13.46,"inhibitor, single point"